Many values rest on one well or one pass, so single values are uncertain.
Compound: [O-][N+](C(C1=C(C(O)=C2)NC(C(C=C3)=CC=C3Cl)C4C1C=CC4)=C2Cl)=O
Assay: melting temperature shift (compound 7 minus DMSO); higher = compound stabilises the protein
Conditions: 10 µM
Method: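 Thermal proteome profiling (TMT mass spectrometry) in intact DAOY medulloblastoma cells or DAOY lysates treated with 10 µM compound 7 or DMSO, heated at 10 temperatures from 40.5 to 73.8 °C for 3 min. Melting curves were fitted with the Bioconductor TPP package, and the melting point difference between compound and vehicle is reported per protein (single curve per condition).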

The chains behind the UniProt entries cited, without tags or fusion partners. Where a name states a change or a piece, a line headed by the entry shows the natural chain unless it says otherwise.
UniProt Q9BY50: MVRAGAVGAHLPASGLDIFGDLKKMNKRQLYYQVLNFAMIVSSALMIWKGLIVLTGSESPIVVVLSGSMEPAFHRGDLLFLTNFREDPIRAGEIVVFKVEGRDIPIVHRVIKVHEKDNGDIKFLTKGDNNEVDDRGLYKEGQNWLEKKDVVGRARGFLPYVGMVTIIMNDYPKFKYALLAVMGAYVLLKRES
UniProt Q9UDY4: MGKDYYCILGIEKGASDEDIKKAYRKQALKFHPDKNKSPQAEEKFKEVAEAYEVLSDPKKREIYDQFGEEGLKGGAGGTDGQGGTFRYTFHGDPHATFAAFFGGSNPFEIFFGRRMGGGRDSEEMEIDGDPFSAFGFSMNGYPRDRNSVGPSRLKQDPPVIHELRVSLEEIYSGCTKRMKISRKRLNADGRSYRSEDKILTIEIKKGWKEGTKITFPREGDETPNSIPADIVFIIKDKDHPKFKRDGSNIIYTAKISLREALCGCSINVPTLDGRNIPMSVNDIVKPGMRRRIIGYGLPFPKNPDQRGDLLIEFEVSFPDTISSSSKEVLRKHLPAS
UniProt Q6ZUV0: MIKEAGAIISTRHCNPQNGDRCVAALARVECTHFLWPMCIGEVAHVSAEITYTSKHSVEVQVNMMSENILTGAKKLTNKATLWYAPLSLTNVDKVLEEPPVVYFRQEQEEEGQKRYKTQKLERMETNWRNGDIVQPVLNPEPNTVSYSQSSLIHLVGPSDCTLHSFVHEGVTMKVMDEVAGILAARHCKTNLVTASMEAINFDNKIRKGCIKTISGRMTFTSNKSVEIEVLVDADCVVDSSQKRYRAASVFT
UniProt P56377: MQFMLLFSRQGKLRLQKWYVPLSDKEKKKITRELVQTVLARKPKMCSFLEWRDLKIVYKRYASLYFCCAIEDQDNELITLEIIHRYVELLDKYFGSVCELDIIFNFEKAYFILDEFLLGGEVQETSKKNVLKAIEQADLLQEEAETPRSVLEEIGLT
UniProt Q8ND24: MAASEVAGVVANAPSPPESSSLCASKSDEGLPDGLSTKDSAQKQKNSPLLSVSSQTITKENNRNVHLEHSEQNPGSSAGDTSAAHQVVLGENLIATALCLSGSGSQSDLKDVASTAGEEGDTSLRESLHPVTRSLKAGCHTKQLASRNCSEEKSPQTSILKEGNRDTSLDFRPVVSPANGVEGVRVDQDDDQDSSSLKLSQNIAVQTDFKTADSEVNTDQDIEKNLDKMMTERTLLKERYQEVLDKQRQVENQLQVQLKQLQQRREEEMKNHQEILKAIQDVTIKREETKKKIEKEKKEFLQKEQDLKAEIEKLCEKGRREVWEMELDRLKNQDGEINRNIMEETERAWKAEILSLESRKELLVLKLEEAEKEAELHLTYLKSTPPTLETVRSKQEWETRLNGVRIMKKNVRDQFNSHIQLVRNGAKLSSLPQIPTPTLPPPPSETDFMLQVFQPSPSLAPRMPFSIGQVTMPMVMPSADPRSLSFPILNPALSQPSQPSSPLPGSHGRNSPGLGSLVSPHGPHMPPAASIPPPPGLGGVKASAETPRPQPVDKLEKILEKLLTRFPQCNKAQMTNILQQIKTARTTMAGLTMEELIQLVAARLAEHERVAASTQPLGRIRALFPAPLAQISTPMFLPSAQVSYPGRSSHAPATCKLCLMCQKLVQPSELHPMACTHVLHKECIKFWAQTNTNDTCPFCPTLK
UniProt O00401, whole entry: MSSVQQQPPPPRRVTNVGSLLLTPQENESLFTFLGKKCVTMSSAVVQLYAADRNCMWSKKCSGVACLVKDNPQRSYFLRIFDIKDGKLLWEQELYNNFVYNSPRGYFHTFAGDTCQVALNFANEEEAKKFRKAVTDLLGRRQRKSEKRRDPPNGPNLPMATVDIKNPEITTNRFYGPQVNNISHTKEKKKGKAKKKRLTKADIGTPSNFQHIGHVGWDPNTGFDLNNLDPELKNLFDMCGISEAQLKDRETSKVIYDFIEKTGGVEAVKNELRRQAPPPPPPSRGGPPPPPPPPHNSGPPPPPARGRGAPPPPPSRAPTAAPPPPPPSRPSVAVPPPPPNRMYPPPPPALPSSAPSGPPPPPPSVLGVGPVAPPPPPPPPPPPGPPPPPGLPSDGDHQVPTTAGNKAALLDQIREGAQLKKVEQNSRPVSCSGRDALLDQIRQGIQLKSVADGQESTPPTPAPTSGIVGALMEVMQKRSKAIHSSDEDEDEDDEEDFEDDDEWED
UniProt Q9UN36: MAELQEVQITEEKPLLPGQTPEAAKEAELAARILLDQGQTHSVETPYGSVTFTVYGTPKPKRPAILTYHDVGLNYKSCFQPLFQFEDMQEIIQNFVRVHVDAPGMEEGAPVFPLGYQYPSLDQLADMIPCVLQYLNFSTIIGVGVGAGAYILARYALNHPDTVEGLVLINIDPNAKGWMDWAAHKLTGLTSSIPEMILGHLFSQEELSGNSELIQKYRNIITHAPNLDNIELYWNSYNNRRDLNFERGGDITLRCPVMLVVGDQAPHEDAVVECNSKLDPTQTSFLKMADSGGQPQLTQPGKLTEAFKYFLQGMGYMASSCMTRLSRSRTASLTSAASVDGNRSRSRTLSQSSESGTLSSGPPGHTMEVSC
UniProt Q7RTU4: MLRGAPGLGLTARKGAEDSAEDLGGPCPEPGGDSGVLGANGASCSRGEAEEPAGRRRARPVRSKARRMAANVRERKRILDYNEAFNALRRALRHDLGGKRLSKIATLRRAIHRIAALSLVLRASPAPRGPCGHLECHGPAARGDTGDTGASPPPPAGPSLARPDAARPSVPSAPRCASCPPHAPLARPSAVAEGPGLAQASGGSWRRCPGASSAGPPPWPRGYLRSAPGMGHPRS
UniProt Q13158: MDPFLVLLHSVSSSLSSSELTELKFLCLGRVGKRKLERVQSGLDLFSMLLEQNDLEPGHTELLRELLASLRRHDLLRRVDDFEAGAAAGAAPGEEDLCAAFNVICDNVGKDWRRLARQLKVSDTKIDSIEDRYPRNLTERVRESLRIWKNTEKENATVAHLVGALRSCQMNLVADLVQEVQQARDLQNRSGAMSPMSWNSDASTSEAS
UniProt Q7Z392: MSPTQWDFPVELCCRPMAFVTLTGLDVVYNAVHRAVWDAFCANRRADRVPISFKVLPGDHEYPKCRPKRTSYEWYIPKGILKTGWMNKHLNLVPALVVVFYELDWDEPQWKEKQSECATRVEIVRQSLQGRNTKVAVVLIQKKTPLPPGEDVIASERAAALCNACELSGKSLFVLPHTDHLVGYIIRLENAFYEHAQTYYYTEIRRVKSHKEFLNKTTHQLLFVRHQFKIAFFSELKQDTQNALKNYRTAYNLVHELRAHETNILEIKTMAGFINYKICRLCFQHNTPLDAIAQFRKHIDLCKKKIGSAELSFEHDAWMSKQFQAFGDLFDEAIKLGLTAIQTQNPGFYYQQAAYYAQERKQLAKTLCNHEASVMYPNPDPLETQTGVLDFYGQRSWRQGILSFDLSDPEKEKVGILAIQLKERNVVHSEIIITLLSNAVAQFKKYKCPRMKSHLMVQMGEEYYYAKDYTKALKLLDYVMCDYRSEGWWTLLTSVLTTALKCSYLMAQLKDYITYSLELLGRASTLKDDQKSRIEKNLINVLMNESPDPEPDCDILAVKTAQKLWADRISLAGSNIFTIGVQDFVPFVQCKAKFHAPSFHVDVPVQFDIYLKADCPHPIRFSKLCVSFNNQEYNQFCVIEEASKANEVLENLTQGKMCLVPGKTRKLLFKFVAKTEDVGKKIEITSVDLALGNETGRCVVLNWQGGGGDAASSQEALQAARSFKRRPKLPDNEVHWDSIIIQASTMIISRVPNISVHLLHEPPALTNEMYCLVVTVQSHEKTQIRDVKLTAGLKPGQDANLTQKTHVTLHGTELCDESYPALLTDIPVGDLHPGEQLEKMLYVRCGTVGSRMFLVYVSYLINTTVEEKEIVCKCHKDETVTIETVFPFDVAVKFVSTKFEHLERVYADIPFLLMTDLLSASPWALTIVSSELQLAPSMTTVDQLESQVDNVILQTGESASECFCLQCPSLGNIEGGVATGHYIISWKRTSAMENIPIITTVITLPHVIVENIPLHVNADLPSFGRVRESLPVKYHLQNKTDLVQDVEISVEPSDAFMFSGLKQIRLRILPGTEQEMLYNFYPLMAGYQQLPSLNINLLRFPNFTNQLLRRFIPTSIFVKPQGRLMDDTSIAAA
UniProt O43379: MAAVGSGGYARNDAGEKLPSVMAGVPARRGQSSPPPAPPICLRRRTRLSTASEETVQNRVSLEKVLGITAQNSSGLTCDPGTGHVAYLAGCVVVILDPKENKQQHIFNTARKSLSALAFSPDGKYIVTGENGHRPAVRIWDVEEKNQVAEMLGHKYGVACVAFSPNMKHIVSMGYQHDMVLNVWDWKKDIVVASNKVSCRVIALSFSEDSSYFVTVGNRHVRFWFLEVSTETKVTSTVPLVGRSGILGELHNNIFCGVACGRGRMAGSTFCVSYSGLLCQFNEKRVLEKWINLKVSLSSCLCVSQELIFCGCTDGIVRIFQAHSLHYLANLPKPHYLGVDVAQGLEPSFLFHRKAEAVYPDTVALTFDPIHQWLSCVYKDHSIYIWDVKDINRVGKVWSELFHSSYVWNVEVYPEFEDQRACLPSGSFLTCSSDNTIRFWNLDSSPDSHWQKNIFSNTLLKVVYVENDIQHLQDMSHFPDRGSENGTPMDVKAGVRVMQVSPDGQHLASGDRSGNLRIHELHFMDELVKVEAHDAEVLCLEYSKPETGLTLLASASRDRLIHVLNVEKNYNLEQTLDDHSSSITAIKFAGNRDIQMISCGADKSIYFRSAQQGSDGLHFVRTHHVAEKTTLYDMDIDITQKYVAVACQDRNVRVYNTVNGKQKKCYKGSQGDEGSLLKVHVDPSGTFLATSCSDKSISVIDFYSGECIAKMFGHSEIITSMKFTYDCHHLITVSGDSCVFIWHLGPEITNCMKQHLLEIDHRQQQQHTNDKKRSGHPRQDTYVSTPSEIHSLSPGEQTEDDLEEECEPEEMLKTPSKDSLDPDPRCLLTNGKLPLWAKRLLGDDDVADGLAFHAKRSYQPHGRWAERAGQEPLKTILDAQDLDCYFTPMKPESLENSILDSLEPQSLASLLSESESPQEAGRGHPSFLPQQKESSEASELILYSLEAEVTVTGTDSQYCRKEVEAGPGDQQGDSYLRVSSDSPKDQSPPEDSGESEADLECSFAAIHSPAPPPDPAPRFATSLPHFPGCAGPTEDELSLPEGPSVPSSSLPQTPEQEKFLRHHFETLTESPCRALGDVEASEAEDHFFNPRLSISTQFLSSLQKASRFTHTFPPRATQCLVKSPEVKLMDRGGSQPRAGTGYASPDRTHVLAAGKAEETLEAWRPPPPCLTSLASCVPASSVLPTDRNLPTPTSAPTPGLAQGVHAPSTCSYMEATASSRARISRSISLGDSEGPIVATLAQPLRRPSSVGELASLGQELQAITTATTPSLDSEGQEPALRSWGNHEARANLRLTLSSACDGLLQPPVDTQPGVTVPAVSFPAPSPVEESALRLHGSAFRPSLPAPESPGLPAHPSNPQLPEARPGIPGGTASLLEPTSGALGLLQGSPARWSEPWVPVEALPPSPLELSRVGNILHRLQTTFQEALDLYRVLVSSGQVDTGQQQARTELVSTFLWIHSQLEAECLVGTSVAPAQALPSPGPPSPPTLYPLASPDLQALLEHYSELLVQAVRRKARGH
UniProt P22033: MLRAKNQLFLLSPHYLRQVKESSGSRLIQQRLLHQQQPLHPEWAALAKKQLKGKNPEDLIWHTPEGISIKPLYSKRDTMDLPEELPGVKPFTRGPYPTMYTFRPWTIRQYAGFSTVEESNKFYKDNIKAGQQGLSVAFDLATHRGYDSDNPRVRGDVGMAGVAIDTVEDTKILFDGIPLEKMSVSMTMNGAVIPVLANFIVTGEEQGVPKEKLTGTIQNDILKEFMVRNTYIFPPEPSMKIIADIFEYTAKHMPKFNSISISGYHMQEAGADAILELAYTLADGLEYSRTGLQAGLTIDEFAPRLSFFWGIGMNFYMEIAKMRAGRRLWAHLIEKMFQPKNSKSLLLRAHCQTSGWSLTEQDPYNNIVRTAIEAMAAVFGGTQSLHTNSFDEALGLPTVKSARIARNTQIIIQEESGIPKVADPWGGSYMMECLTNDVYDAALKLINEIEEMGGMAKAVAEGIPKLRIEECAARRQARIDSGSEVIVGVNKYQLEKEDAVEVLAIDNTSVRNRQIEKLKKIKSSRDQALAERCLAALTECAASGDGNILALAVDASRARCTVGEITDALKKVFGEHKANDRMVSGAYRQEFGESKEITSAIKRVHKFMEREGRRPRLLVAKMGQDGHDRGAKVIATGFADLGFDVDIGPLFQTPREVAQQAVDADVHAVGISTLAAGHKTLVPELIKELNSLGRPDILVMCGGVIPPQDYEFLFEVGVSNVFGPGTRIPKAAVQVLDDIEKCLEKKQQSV
UniProt P51153: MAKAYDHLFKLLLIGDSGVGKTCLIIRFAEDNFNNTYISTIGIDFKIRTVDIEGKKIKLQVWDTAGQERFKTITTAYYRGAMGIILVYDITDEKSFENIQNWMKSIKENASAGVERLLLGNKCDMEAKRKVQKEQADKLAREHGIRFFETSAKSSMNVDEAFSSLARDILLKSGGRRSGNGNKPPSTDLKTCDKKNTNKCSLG

[1] = system: intact DAOY cells, treatment time: 90 min, 37 °C
[2] = system: DAOY cell lysate, treatment time: 20 min, 4 °C

| Target | melting temperature shift [1] [°C] | melting temperature shift [2] [°C] |
| --- | --- | --- |
| NME6 (UniProt O75414) | -0.661 | – |
| TARS (UniProt P26639) | 0.911 | -0.659 |
| NEMP1 (UniProt O14524) | -2.15 | 3.84 |
| UniProt Q6UWU4 | -3.98 | 0.495 |
| TERF2 (UniProt Q15554) | -1.32 | 0.435 |
| UniProt P48595 | 2.58 | – |
| WDR6 (UniProt Q9NNW5) | 0.385 | -0.17 |
| UniProt P35626 | -1.32 | – |
| UniProt Q86US8 | – | 0.228 |
| OPTN (UniProt Q96CV9) | 1.37 | -0.941 |
| SNRPA1 (UniProt P09661) | 0.269 | 0.133 |
| UniProt Q14533 | – | -1.69 |
| UniProt Q9BRR8 | – | -0.682 |
| KIF1B (UniProt O60333) | -0.143 | -0.188 |
| UniProt P80404 | – | -0.178 |
| SEC11C (UniProt Q9BY50) | -1.86 | 1.83 |
| THADA (UniProt Q6YHU6) | -0.251 | -1.1 |
| ACSL4 (UniProt O60488) | -0.616 | -0.268 |
| DNAJB4 (UniProt Q9UDY4) | -0.193 | -0.65 |
| FAM162A (UniProt Q96A26) | – | 0.664 |
| UniProt Q9P2S5 | -0.926 | 1.25 |
| UniProt Q9H9S5 | 1.17 | 1.29 |
| UniProt Q6ZUV0 | -0.653 | – |
| UniProt P49841 | -0.185 | -1.12 |

Three entries drawn at random from those above:

| Target | melting temperature shift [1] [°C] | melting temperature shift [2] [°C] |
| --- | --- | --- |
| SEC11C (UniProt Q9BY50) | -1.86 | 1.83 |
| UniProt Q14533 | – | -1.69 |
| UniProt P49841 | -0.185 | -1.12 |

Remaining list, next part:

| Target | melting temperature shift [1] [°C] | melting temperature shift [2] [°C] |
| --- | --- | --- |
| C16ORF62 (UniProt Q7Z3J2) | -1.15 | -0.663 |
| UniProt P68133 | 0.273 | 0.379 |
| EIF3K (UniProt Q9UBQ5) | 0.681 | -0.275 |
| ST3GAL4 (UniProt Q11206) | -0.616 | – |
| PNPT1 (UniProt Q8TCS8) | -0.861 | 0.788 |
| EMC2 (UniProt Q15006) | -0.457 | 1.3 |
| UniProt Q96Q89 | – | 1.33 |
| UniProt P56377 | 1.06 | 0.231 |
| UniProt Q96BX8 | -0.518 | 0.369 |
| TWISTNB (UniProt Q3B726) | – | -1.24 |
| RBBP6 (UniProt Q7Z6E9) | – | 0.0222 |
| UniProt A5A3E0 | 0.635 | – |
| UniProt P0DMU9 | 1.32 | – |
| UniProt Q9NU23 | -0.548 | -0.859 |
| WNK2 (UniProt Q9Y3S1) | 0.347 | – |
| FXN (UniProt Q16595) | – | 0.551 |
| STXBP5 (UniProt Q5T5C0) | 1.32 | – |
| EIF2AK4 (UniProt Q9P2K8) | -0.297 | 0.207 |
| DTX2 (UniProt Q86UW9) | 1.28 | – |
| UniProt Q8TE73 | -1.48 | – |
| UniProt Q96E17 | -1.33 | – |
| ITSN1 (UniProt Q15811) | 0.922 | -0.425 |
| RPSA (UniProt P08865) | -0.639 | -0.0932 |
| UniProt Q6ZTN6 | -1 | – |

| Target | melting temperature shift [1] [°C] | melting temperature shift [2] [°C] |
| --- | --- | --- |
| NFATC2IP (UniProt Q8NCF5) | 4.31 | -0.0923 |
| PPP2R5C (UniProt Q13362) | -0.28 | -0.538 |
| BCKDK (UniProt O14874) | – | -0.873 |
| UniProt O75155 | 0.153 | -1.29 |
| MAGEA1 (UniProt P43355) | – | -3 |
| UniProt A4D1P6 | -0.161 | 1.54 |
| ACTL6A (UniProt O96019) | 0.927 | -0.2 |
| GIT1 (UniProt Q9Y2X7) | -0.689 | -1.01 |
| SEC23B (UniProt Q15437) | -0.531 | -0.229 |
| RPL23A (UniProt P62750) | -0.607 | 0.213 |
| RNF214 (UniProt Q8ND24) | -0.0904 | 0.0795 |
| NOC2L (UniProt Q9Y3T9) | 0.97 | 0.0147 |
| MACROD1 (UniProt Q9BQ69) | – | 3.19 |
| TBL3 (UniProt Q12788) | – | 0.996 |
| UniProt P13747 | 0.613 | – |
| UniProt Q16825 | – | 0.253 |
| UniProt P27449 | – | -0.621 |
| TUBA4A (UniProt P68366) | -0.166 | 0.48 |
| PTPN2 (UniProt P17706) | -0.876 | -0.755 |
| WDR77 (UniProt Q9BQA1) | -1.36 | -0.457 |
| UniProt P30536 | 1.67 | 0.38 |
| PTPN11 (UniProt Q06124) | 0.147 | -0.19 |
| MRPL47 (UniProt Q9HD33) | -0.987 | 1.86 |
| WDR36 (UniProt Q8NI36) | – | 0.105 |

| Target | melting temperature shift [1] [°C] | melting temperature shift [2] [°C] |
| --- | --- | --- |
| UniProt P51449 | -0.898 | – |
| IBTK (UniProt Q9P2D0) | – | -0.934 |
| ARF5 (UniProt P84085) | -2.01 | 0.0398 |
| CHST14 (UniProt Q8NCH0) | -0.816 | 1.07 |
| UniProt P19823 | -0.689 | – |
| DIMT1 (UniProt Q9UNQ2) | -0.842 | 0.263 |
| POLR2C (UniProt P19387) | 0.00473 | 0.0922 |
| UniProt Q53S08 | – | 1.25 |
| ORC5 (UniProt O43913) | -1.12 | -1.72 |
| UniProt P49221 | 0.338 | – |
| UniProt Q9NNX1 | – | -0.04 |
| WASL (UniProt O00401) | -0.478 | -0.273 |
| GINS1 (UniProt Q14691) | -0.676 | 0.19 |
| EIF3L (UniProt Q9Y262) | -0.0197 | 0.00923 |
| UniProt Q9UN36 | – | -0.851 |
| TNFAIP8 (UniProt O95379) | -0.419 | -0.774 |
| UniProt Q7RTU4 | – | -0.471 |
| TPI1 (UniProt P60174) | 0.099 | -1.48 |
| FADD (UniProt Q13158) | -1.12 | -1.16 |
| ARHGAP35 (UniProt Q9NRY4) | 0.543 | -0.753 |
| RPL22 (UniProt P35268) | -1.04 | -0.237 |
| LMNA (UniProt P02545) | 1.49 | – |
| AUP1 (UniProt Q9Y679) | -1.29 | 1.47 |
| UniProt P19525 | -0.0981 | -0.4 |

| Target | melting temperature shift [1] [°C] | melting temperature shift [2] [°C] |
| --- | --- | --- |
| TRAPPC11 (UniProt Q7Z392) | -0.257 | -0.307 |
| UniProt P48995 | -2.24 | – |
| SEL1L (UniProt Q9UBV2) | -0.652 | 1.42 |
| UniProt Q8IZT6 | – | -1.77 |
| RHOT1 (UniProt Q8IXI2) | -1.57 | 0.548 |
| WDR62 (UniProt O43379) | 2.69 | -0.908 |
| DARS2 (UniProt Q6PI48) | -3.17 | 0.24 |
| UniProt Q8NFJ8 | -0.173 | – |
| NOP9 (UniProt Q86U38) | – | 1.09 |
| AP4E1 (UniProt Q9UPM8) | 0.319 | -1.38 |
| UniProt Q12962 | -0.793 | -1.91 |
| GOLGA2 (UniProt Q08379) | 0.287 | 1.48 |
| MUT (UniProt P22033) | -0.969 | 0.345 |
| UniProt Q8ND83 | -1.4 | – |
| NOP56 (UniProt O00567) | – | 0.994 |
| GPHN (UniProt Q9NQX3) | 0.39 | -0.806 |
| IKBKG (UniProt Q9Y6K9) | – | -4.66 |
| MDH2 (UniProt P40926) | -0.126 | 0.7 |
| RAB13 (UniProt P51153) | -0.794 | 0.69 |
| UniProt Q99836 | 0.616 | -0.758 |
| SYNRG (UniProt Q9UMZ2) | 2.11 | -1.04 |
| KPNA6 (UniProt O60684) | -1.5 | -1.1 |
| HIST1H1E (UniProt P10412) | -1.15 | – |

Two successive records from above, quoted:

| Target | melting temperature shift [1] [°C] | melting temperature shift [2] [°C] |
| --- | --- | --- |
| MUT (UniProt P22033) | -0.969 | 0.345 |
| UniProt Q8ND83 | -1.4 | – |

Source: the supplement of paper PMC10060354, “Discovery of a small molecule ligand of FRS2 that inhibits invasion and tumor growth” (Cellular Oncology, 2022)
